Reference: patent publication US10730851B2, “Polymorph of triaryldimethylpiperazine dihydrochloride and preparation method and application thereof” (priority 2016, dated 2020)
Structures can show the parent of a compound that is named as a salt. Where two headings read alike, the source gives them in different places. The source gives many values for each of these; only a part stands here.

Key:
[1] = Dynamic solubility test in water, SGF, FeSSIF, FaSSIF; assay type: physicochemical
Procedure: The dynamic solubility of a free base, polymorph forms B, P, F, J and O in water or a biological medium such as Stimulated Gastric Fluid (SGF), Fed State Simulated Intestinal Fluid (FeSSIF) or Fasted State Simulated Intestinal Fluid (FaSSIF) is determined.
0.2 g sodium chloride and 0.1 g Triton X-100 is weighed and placed into a 100 mL volumetric flask. Purified water is added to dissolve. A stir is performed until the solid is completely dissolved. About 135 μL concentrated hydrochloric acid solution (37%, […]) is added, then the pH is adjusted to 1.8 with […] hydrochloric acid or 1 mmoL/L sodium hydroxide. Finally, the volume is fixed with purified water to obtain Stimulated Gastric Fluid (SGF) for later use.
Each of 0.41 mL glacial acetic acid, 0.20 g sodium hydroxide and 0.59 g sodium chloride is weighed and placed to a 50 mL volumetric flask. About 48 mL purified water is added to dissolve, the pH is adjusted to 5.0 with 1 mmoL/L hydrochloric acid or 1 mmoL/L sodium hydroxide, and the volume is fixed with purified water. Then 0.56 g of Simulated Intestinal Fluid powder (SIF powder for short, which is composed of […] with a molar ratio of 4:1) is added, stirred and ultrasonically dissolved to obtain Fed State Simulated Intestinal Fluid (FeSSIF) for later use.
Each of 0.17 g of anhydrous sodium dihydrogen phosphate (NaH2PO4), 0.021 g of sodium hydroxide and 0.31 g of sodium chloride is weighed and placed into a 50 mL volumetric flask. About 48 mL of purified water is added to dissolve, the pH is adjusted to 6.5 with 1 mmoL/L hydrochloric acid or 1 mmoL/L sodium hydroxide, and the volume is fixed with purified water. 0.11 g of SIF powder is added, stirred and ultrasonically dissolved to obtain Fasted State Simulated Intestinal Fluid (FaSSIF) for later use.
Each 30 mg of the free base, and polymorph forms B, P, F, J and O are weighed. 3 mL of purified water, Stimulated Gastric Fluid (SGF), Fed State Simulated Intestinal Fluid (FeSSIF) or Fasted State Simulated Intestinal Fluid (FaSSIF)) is added and oscillated at room temperature. 0.6 mL of suspension is taken each time at a set time point, filtered and separated with a 0.45 μm nylon filter membrane, then XRPD characterization is performed on the solid sample, and the concentration in the clear solution is measured by HPLC.

Rough solubility test = assay type: physicochemical
Procedure: 2.0 mg of a free base and 2.0 mg of polymorph forms B, F, P, J and O are respectively taken and placed in 3.0 mL glass bottles. Then the solvent methanol is added step by step, and ultrasound is performed to observe whether the sample is completely dissolved. If the sample is still not completely dissolved after 2.0 mL of solvent is added, the test is stopped to measure the rough solubility of the free base, polymorph forms B, F, P, J and O in methanol respectively.
Using the same method, the rough solubility of the free base, polymorph forms B, P, F, J and O in other organic solvents or water listed in Table 6 are determined respectively.

CC1CCN(C(=O)c2ccc([C@H](c3cccc(O)c3)N3C[C@@H](C)N(Cc4cccc(F)c4)C[C@@H]3C)cc2)CC1 [Polymorph form B, (4-((R)-((2S,5R)-4-(3-fluorobenzyl)-(2,5-dimethylpiperazine-1-yl)(3-hydroxyphenyl)methyl)phenyl)(4-methylpiperidine-1-yl)methanone dihydrochloride]
Crystal form of insoluble solid sample ([1]; pH 1.8): amorphism
Crystal form of insoluble solid sample ([1]; pH 5): amorphism
Crystal form of insoluble solid sample ([1]; pH 6.5): amorphism

CC1CCN(C(=O)c2ccc([C@H](c3cccc(O)c3)N3C[C@@H](C)N(Cc4cccc(F)c4)C[C@@H]3C)cc2)CC1 [Polymorph form J, (4-((R)-((2S,5R)-4-(3-fluorobenzyl)-(2,5-dimethylpiperazine-1-yl)(3-hydroxyphenyl)methyl)phenyl)(4-methylpiperidine-1-yl)methanone dihydrochloride]
Crystal form of insoluble solid sample [1]: Monohydro-
Crystal form of insoluble solid sample ([1]; pH 1.8): amorphism
Crystal form of insoluble solid sample ([1]; pH 5): amorphism
Crystal form of insoluble solid sample ([1]; pH 6.5): amorphism

CC1CCN(C(=O)c2ccc([C@H](c3cccc(O)c3)N3C[C@@H](C)N(Cc4cccc(F)c4)C[C@@H]3C)cc2)CC1 [Polymorph form O, (4-((R)-((2S,5R)-4-(3-fluorobenzyl)-(2,5-dimethylpiperazine-1-yl)(3-hydroxyphenyl)methyl)phenyl)(4-methylpiperidine-1-yl)methanone dihydrochloride]
Crystal form of insoluble solid sample [1]: Monohydro-
Crystal form of insoluble solid sample ([1]; pH 1.8): invariability
Crystal form of insoluble solid sample ([1]; pH 5): invariability
Crystal form of insoluble solid sample ([1]; pH 6.5): invariability

CC1CCN(C(=O)c2ccc([C@H](c3cccc(O)c3)N3C[C@@H](C)N(Cc4cccc(F)c4)C[C@@H]3C)cc2)CC1 [free base]
Crystal form of insoluble solid sample ([1]; Water, Time 1, XRPD): invariability
Solubility ([1]; Water, Time 1, room temperature): <LOQ
Rough solubility (Rough solubility test; 1,4-dioxane): 12000 to 15000 µg/mL
Rough solubility (Rough solubility test; 2-MeTHF (second line for this solvent)): 4700 to 5100 µg/mL
Rough solubility (Rough solubility test; 2-methyltetrahydrofuran): 4700 to 5100 µg/mL
Rough solubility (Rough solubility test; Acetone): 29000 to 30800 µg/mL
Rough solubility (Rough solubility test; Acetonitrile): 42900 to 43100 µg/mL
Rough solubility (Rough solubility test; Chloroform): 20700 to 31000 µg/mL
Rough solubility (Rough solubility test; Ethanol): 5200 to 5600 µg/mL
Rough solubility (Rough solubility test; Ethyl acetate): 7700 to 9000 µg/mL
Rough solubility (Rough solubility test; Isopropyl acetate): 3300 to 3500 µg/mL
Rough solubility (Rough solubility test; Isopropyl alcohol): 4600 to 4900 µg/mL
Rough solubility (Rough solubility test; Methanol): 22000 to 23000 µg/mL
Rough solubility (Rough solubility test; Methyl isobutyl ketone): 3500 to 3800 µg/mL
Rough solubility (Rough solubility test; Methyl tert-butyl ether): 2400 to 2600 µg/mL
Rough solubility (Rough solubility test; N,N-dimethylacetamide): 11500 to 15300 µg/mL
Rough solubility (Rough solubility test; N-heptane): <1500 µg/mL
Rough solubility (Rough solubility test; N-methylpyrrolidone): 7400 to 8700 µg/mL
Rough solubility (Rough solubility test; Tetrahydrofuran): 17000 to 22600 µg/mL
Rough solubility (Rough solubility test; Toluene): 1300 to 1400 µg/mL
Rough solubility (Rough solubility test; Water): <1100 µg/mL
Rough solubility (Rough solubility test; dichloromethane): 10000 to 12500 µg/mL
Rough solubility (Rough solubility test; dimethyl sulfoxide): 9300 to 11200 µg/mL
